Some of these results come from one statement about several compounds together.
System: MDA-MB-231, Hs578T, and MCF-7 breast cancer cells
Assay: proliferation and drug sensitivity of breast cancer cells after HERV-K KD
Format: cell-based, human
Details: shRNAenv vs drug treatment alone or shRNAc
Text: Here, the inventors further determined the effects of HERV-K env gene KD in breast cancer cells treated with breast cancer chemotherapy drugs.

For COc1cccc2c1C(=O)c1c(O)c3c(c(O)c1C2=O)C[C@@](O)(C(=O)CO)C[C@@H]3O[C@H]1C[C@H](N)[C@H](O)[C@H](C)O1 [doxorubicin], which “decrease in EC50” value is on record?
The value was “at least 5 fold”.

Which “decrease in EC50” value does the source give for CC(=O)O[C@H]1C(=O)[C@@]2(C)[C@H]([C@H](OC(=O)c3ccccc3)[C@]3(O)C[C@H](OC(=O)[C@H](O)[C@@H](NC(=O)c4ccccc4)c4ccccc4)C(C)=C1C3(C)C)[C@]1(OC(C)=O)CO[C@@H]1C[C@@H]2O [paclitaxel] here?
Its value is “at least 5 fold”.

Reference: patent US20250145693A1, “HERV-K ANTIBODY, CELL, VACCINE, AND DRUG THERAPEUTICS” (priority 2021, published 2025)
